{"sequences": {"note": "Sequences of proteins named here, by UniProt entry; tags and fusion partners are left off.", "UniProt P35222": "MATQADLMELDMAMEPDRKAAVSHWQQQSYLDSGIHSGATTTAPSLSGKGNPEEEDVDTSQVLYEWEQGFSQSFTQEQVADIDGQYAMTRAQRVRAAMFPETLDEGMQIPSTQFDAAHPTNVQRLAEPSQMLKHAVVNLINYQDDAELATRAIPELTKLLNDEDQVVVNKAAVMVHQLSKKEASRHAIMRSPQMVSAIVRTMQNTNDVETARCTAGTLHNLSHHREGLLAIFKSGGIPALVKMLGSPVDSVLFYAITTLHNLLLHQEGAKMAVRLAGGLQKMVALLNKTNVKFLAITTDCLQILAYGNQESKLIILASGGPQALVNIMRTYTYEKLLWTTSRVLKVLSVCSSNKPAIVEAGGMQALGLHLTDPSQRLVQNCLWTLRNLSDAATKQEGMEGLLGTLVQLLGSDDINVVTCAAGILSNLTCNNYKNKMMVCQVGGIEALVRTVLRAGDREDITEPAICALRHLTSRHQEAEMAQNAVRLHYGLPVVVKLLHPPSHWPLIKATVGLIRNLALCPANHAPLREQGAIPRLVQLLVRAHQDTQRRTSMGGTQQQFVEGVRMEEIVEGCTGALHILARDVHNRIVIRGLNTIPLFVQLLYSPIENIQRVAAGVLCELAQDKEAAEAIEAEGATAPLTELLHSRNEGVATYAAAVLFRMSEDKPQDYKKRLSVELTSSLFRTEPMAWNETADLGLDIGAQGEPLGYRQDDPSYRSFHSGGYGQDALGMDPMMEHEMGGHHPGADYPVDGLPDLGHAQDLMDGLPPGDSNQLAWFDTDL", "UniProt O00255": "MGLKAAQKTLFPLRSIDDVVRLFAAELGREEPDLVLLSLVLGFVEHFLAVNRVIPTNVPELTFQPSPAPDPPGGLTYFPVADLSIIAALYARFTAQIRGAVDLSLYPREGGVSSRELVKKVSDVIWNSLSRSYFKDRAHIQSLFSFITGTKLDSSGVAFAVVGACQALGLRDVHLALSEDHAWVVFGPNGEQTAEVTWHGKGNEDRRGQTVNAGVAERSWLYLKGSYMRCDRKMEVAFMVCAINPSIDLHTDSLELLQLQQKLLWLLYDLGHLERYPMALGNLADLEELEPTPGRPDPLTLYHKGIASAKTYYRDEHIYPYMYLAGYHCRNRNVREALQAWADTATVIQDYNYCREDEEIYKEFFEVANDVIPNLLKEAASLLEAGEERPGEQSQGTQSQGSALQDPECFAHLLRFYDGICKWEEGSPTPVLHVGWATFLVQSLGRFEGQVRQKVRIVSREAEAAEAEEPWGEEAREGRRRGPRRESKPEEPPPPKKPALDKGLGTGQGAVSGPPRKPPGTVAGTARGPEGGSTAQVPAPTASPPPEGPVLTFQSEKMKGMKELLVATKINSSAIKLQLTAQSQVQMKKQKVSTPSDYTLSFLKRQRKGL"}, "source": "paper PMC11425246", "molecular_target": "Flag‐β‐Catenin (UniProt P35222)", "experiment": "affinity purification with mass spectrometry; lysate (NP‐40 lysis buffer) of stable Flag‐β‐Catenin‐expressing QGP‐1 cells, anti‐Flag Ab or rabbit IgG control, Protein A+G agarose, 4 °C; SDS‐PAGE, silver staining, trypsin digest, LC/MS‐MS", "note": "No constants are given. Whether binding was seen depends on the method and setting. Binding seen in cells or lysates may run through a third protein. Here binding means that the protein was enriched with, or labelled near, the bait; the list need not be complete."}
{"substance": "MEN1 (endogenous) (from UniProt O00255 1-610)", "values": [{"measurement": "binding", "result": "binds"}]}
